These results are taken from publication PMC12794514.

Amino acid sequences for entries named in this document (tags omitted). A change or cut given only in a name is not applied to a line headed by its entry.
UniProt Q8WTX9: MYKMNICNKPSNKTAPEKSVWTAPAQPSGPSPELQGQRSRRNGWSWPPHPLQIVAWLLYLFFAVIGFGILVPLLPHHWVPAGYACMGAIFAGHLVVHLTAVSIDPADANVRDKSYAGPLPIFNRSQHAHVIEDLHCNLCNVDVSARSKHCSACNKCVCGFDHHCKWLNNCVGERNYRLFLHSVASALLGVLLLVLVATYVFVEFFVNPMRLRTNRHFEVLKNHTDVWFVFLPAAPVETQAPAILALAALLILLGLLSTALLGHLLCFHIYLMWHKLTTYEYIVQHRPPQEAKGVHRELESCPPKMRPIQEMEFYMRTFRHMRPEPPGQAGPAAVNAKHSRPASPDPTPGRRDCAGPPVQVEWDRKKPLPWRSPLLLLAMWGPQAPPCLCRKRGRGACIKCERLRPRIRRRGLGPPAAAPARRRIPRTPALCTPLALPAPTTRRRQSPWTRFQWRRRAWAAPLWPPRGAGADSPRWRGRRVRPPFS
UniProt Q9Y397: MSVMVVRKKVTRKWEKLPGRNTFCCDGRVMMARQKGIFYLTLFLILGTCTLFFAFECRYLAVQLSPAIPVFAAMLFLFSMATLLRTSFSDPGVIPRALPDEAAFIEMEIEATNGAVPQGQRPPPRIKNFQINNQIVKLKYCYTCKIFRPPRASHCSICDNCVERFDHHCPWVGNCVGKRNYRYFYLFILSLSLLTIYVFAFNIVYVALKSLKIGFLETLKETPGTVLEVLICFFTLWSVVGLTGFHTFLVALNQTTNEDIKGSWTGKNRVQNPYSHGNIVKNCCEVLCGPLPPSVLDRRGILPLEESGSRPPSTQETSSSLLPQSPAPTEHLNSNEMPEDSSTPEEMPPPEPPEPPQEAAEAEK

The target of assay [1] is T1, MTDH as used in the reciprocal co-immunoprecipitations of Supplemental Fig. S4G-J (human) (UniProt Q86UE4).
T1 sequence: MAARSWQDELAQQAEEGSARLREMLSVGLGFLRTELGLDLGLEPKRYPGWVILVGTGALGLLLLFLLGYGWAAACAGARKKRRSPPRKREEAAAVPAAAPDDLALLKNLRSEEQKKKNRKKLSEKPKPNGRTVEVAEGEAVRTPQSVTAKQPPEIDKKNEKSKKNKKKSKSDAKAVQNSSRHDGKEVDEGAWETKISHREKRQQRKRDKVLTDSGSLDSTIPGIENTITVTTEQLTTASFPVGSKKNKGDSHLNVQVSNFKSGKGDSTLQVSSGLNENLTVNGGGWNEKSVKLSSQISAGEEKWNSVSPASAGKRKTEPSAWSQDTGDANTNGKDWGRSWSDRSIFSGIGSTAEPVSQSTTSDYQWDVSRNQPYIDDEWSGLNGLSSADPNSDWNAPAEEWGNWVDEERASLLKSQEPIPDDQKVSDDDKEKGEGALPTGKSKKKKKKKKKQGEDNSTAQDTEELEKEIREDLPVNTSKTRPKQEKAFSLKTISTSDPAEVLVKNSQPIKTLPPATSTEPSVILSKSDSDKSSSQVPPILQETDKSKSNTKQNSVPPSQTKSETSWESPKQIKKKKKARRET
In words: co-IP; Supplemental Fig. S4H, J: reciprocal, MTDH immunoprecipitated, ZDHHC or ZDHHS detected; NETN buffer, anti-Flag affinity gel or anti-HA magnetic beads, 4°C overnight.

Assay [2] has as its target SF-tagged ZDHHS1 (catalytically inactive mutant of ZDHHC1) (UniProt Q8WTX9). In words: co-IP; Supplemental Fig. S4G, I: ZDHHC or ZDHHS immunoprecipitated, MTDH detected; NETN buffer, anti-Flag affinity gel or anti-HA magnetic beads, 4°C overnight.
The target of assay [3] is SF-tagged ZDHHS9 (catalytically inactive mutant of ZDHHC9) (UniProt Q9Y397). The description is as above.

These are yes or no findings as the source states them, for the method shown. Binding seen in cells or lysates may run through a third protein. Binding calls can cover weak binding; strength is not graded here.

In the case of “SF-tagged ZDHHS1 (catalytically inactive mutant of ZDHHC1) (from UniProt Q8WTX9) (enzyme)”, in assay [1], the binding entry was “binds”.

B1: MTDH as used in the reciprocal co-immunoprecipitations of Supplemental Fig. S4G-J (protein, UniProt Q86UE4 1-582)
chain: T1 sequence
Regarding B1, the binding result in assay [2] and in assay [3] was “binds” each time.
